# Measurements from US20120189673A1, “POLYPEPTIDES AND USES THEREOF” (priority 2009, published 2012).
# Experiment: CD-spectroscopy of peptide secondary structure
# Type: physicochemical
# Conditions: 10 μM peptide; for conformational change (helical content) on binding to liposomes: DOPE/DOPG liposomes; for conformational change together with E. coli LPS: E. coli lipopolysaccharide 0.02 wt %
Sequence,conformational change (helical content) on binding to liposomes,conformational change together with E. coli LPS
LIKTKRKRKKQRVKIAY [LIK17],largely unaffected; also recorded: no significant conformational changes,only relatively minor ones
"GGLIKTKRKRKKQRVKIAYEEIFVKNM [GGL27, C-terminal peptide of TFPI, plasmin-generated]",largely unaffected; also recorded: no significant conformational changes,only relatively minor ones

# Entries after “also recorded” stand apart in the source; their conditions may differ.
